Patent publication US6900026B2, “Methods for identifying compounds as antioxidants” (priority 1996, dated 2005)

Assays:
Sod2CJE(−/−) animals = test: Behavioral analysis and neuropathology of treated Sod2CJE(−/−) animals; format: in vivo
Description: Treated Sod2CJE(−/−) animals were observed daily from 10 days through to greater than five weeks for behavioral abnormalities compared to litter mate controls. Daily video recordings of up to 10 minutes were made to longitudinally track the development of behavioral changes. A total of 187 video recordings were made of 63 animals from 10 to 23 days of age.
For pathology, the brains were removed from the sacrificed animals and fixed in 10% buffered formalin for up to 7 days. They were then processed, embedded, and sectioned. In some cases representative sections were made every 20 sections or so at 7 microns thickness throughout the brain and stained with hematoxylin and eosin for examination by light microscopy. In other cases, the entire brain was sectioned at 8 microns throughout. […]
During the course of an experiment, each mouse is evaluated daily for weight, lethargy, lack of appetite, its vital signs and for any indication of neurological disorders (observed for circling behavior, dystonia, trembling or the like. Video records can be made for later evaluation, for example for side-by-side comparisons or for observing changes over time. Cardiac histopathology and central nervous system tissue analysis are carried out after death of the animal or after sacrifice of the animal.

Sod2(+/+) animals = test: Lipid in liver by Oil red-O staining, treated Sod2(+/+) animals; format: in vivo, mouse; design: key to Lipid Mode (score) / Lipid Mean (score): 0=no observable lipid in sections; 1=mild diffuse speckled distribution of lipid; 2=more intense speckled pattern; 3=coalescence of small lipid droplets into large intercellular droplets; 4=massive intercellular lipid droplet accumulation; conditions: MnTBAP treated Sod2(+/+); for Lipid % Control: control = untreated (−/−) 6-10 days; for Lipid Mean (score) / Lipid Mode (score): score 0-4

| SMILES | animals developing auditory induced seizures (Sod2CJE(−/−) animals; Euk-8 treated Sod2CJE(−/−) animals which survive to 21 days) | age at which gait disturbance began (Sod2CJE(−/−) animals; MnTBAP treated Sod2CJE(−/−) animals) | Lipid % Control (Sod2(+/+) animals; 12 days old, n=3) [%] | Lipid Mean (score) (Sod2(+/+) animals; 12 days old, n=3) | Lipid Mode (score) (Sod2(+/+) animals; 12 days old, n=3) | Lipid % Control (Sod2(+/+) animals; 14 days old, n=4) [%] | Lipid Mean (score) (Sod2(+/+) animals; 14 days old, n=4) | Lipid Mode (score) (Sod2(+/+) animals; 14 days old, n=4) | Lipid % Control (Sod2(+/+) animals; 17 days old, n=4) [%] | Lipid Mean (score) (Sod2(+/+) animals; 17 days old, n=4) | Lipid Mode (score) (Sod2(+/+) animals; 17 days old, n=4) |
| --- | --- | --- | --- | --- | --- | --- | --- | --- | --- | --- | --- |
| [Cl-].[Mn+3].[O-]c1ccccc1C=NCCN=Cc1ccccc1[O-] [Euk-8] | 5 of 9 |  |  |  |  |  |  |  |  |  |  |
| O=C(O)c1ccc(-c2c3nc(c(-c4ccc(C(=O)O)cc4)c4ccc([nH]4)c(-c4ccc(C(=O)O)cc4)c4nc(c(-c5ccc(C(=O)O)cc5)c5ccc2[nH]5)C=C4)C=C3)cc1.[Mn] [MnTBAP, Manganese 5,10,15,20-tetrakis(4-benzoic acid) porphyrin] |  | about 12 days of age | 0 | 0 | 0 | 6 | 0.25 | 0.5 | 38 | 1.5 | 2 |
